From publication PMC4264851
These are yes or no findings as the source states them, for the method shown. For some of these results: In cells and extracts the contact can be indirect. Some results given as binding are weak or reduced against the parent protein; the word gives no strength. Sequences can lack the tags named with a protein.

T1: Utp4-TAP (S. cerevisiae) (UniProt Q06679)
T1 sequence: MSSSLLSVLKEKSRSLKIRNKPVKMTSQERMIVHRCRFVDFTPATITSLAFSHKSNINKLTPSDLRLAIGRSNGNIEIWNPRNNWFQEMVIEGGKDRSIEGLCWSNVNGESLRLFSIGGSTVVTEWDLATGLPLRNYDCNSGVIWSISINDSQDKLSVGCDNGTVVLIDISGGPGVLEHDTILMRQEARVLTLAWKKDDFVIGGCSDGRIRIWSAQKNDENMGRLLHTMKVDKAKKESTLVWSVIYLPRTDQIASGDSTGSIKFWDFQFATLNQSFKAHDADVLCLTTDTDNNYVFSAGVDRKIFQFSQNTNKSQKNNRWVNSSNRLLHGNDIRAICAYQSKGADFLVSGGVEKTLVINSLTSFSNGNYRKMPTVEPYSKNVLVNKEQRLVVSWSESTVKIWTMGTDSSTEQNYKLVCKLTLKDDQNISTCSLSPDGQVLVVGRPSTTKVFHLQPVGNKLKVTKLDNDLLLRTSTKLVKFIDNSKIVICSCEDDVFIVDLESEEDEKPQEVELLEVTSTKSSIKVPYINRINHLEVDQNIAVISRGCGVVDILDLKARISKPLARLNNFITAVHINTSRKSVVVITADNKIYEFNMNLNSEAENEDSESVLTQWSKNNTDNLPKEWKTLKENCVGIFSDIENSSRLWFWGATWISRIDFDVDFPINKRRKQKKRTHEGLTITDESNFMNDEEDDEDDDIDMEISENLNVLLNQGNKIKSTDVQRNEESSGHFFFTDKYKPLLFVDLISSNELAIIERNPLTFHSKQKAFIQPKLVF

T2: Pwp2-TAP (S. cerevisiae) (UniProt P25635)
T2 sequence: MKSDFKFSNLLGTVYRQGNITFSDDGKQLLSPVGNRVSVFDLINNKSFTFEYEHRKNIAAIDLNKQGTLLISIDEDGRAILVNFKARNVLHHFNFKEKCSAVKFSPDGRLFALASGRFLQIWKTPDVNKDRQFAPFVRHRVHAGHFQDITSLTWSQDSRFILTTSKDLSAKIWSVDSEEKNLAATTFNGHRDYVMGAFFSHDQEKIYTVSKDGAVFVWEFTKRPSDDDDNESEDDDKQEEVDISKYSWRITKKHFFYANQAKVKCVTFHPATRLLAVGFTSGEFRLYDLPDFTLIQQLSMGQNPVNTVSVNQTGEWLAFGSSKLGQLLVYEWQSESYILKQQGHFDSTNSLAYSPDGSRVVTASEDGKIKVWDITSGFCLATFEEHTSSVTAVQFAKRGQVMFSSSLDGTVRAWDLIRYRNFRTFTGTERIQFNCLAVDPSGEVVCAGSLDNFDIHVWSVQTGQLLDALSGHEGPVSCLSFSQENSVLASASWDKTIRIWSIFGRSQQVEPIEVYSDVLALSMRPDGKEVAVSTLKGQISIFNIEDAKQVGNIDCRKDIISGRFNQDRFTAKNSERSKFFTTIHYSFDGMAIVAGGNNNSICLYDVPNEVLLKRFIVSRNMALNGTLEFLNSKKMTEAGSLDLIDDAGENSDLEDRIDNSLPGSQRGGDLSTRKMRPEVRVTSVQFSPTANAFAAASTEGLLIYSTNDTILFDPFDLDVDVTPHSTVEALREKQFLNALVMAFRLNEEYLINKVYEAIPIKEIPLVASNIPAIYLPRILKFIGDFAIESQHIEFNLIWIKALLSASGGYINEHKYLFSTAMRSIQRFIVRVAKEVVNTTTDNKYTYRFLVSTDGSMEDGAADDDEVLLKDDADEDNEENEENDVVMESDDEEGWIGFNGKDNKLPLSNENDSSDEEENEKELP


Experiments:
Utp4-TAP (S. cerevisiae) = biological target: T1, Utp4-TAP (S. cerevisiae); assay: co-IP; only Utp4-TAP, Utp8-FLAG and Utp9 co-expressed in SF21 cells (bacmid K2212); bait Utp4-TAP on IgG-coupled beads; resin before TEV elution analysed by Western blot with anti-FLAG antibody
Pwp2-TAP (S. cerevisiae) = biological target: T2, Pwp2-TAP (S. cerevisiae); assay: SEC; bacmid K1991; IgG Sepharose/TEV eluate (Pwp2-TAP) fractionated on Superose 6; fractions by SDS-PAGE, MS and Western blot (anti-CBP, anti-HA)

Binder	binding (Utp4-TAP (S. cerevisiae))	binding (Pwp2-TAP (S. cerevisiae))
Utp8-FLAG (protein, UniProt P53276 1-713) MPSLSQPFRLATLPKIASLSNFSLQADYVQVADGTFNESTNNITLGISGSSISQYIINPTPKLTFDYPIPSTNIITACNAEKGQANIDGNIEASTDDEANNEKTINTQKKRNVEIWAFGLMVNKGNYTLNVITKALEDTTDTSNDHLSESDIDNKAYTGSDEFLSQYKIKAKAKVMSIKIDTKNSLVIAILQNGLIEIFDFKLTLLHSFDISYDNLKYAKWFTENGTEYVFVLCPLQDDKVCYKLLELTDCGSGESSPIKELSSTIIEGFSFENSKLCYQFGKLYKLNQGKIYIYSLPHCQLQQVIEFPMVDKLSPGDDLISFQPVSVNRVLLTVNNVIYLLDLLHCSTLSQRELTHVKTFQLLKSAVINSEKSHNSKTIAIGISTKNGPNPTSSLEIINIDVGTNTLKDSLGKSFQVGNNDSSVILKPLFDDKDINDKRVKCNDVSGDSSVPVLHCNEVIEKLSALQDNDITSFDDIFFKELKIKEEHYTEKDRYISDPGFLNKVLDLIFGKFSGNDYPKTLTFLLTHPLFPLSRTRNLLSLLRDQPRLFKQAIVTCPNLPLNELLEELFSIRNRELLLDISFRILQDFTRDSIKQEMKKLSKLDVQNFIEFITSGGEDSSPECFNPSQSTQLFQLLSLVLDSIGLFSLEGALLENLTLYIDKQVEIAERNTELWNLIDTKGFQHGFASSTFDNGTSQKRALPTYTMEYLDI	binds weakly	
Utp12-FLAG (protein, UniProt Q12220 1-943) MVKSYQRFEQAAAFGVIASNANCVWIPASSGNSNGSGPGQLITSALEDVNIWDIKTGDLVSKLSDGLPPGASDARGAKPAECTYLEAHKDTDLLAVGYADGVIKVWDLMSKTVLLNFNGHKAAITLLQFDGTGTRLISGSKDSNIIVWDLVGEVGLYKLRSHKDSITGFWCQGEDWLISTSKDGMIKLWDLKTHQCIETHIAHTGECWGLAVKDDLLITTGTDSQVKIWKLDIENDKMGGKLTEMGIFEKQSKQRGLKIEFITNSSDKTSFFYIQNADKTIETFRIRKEEEIARGLKKREKRLKEKGLTEEEIAKSIKESYSSFILHPFQTIRSLYKIKSASWTTVSSSKLELVLTTSSNTIEYYSIPYEKRDPTSPAPLKTHTIELQGQRTDVRSIDISDDNKLLATASNGSLKIWNIKTHKCIRTFECGYALTCKFLPGGLLVILGTRNGELQLFDLASSSLLDTIEDAHDAAIWSLDLTSDGKRLVTGSADKTVKFWDFKVENSLVPGTKNKFLPVLKLHHDTTLELTDDILCVRVSPDDRYLAISLLDNTVKVFFLDSMKFYLSLYGHKLPVLSIDISFDSKMIITSSADKNIKIWGLDFGDCHKSLFAHQDSIMNVKFLPQSHNFFSCSKDAVVKYWDGEKFECIQKLYAHQSEVWALAVATDGGFVVSSSHDHSIRIWEETEDQVFLEEEKEKELEEQYEDTLLTSLEEGNGDDAFKADASGEGVEDEASGVHKQTLESLKAGERLMEALDLGIAEIEGLEAYNRDMKLWQRKKLGEAPIKPQGNAVLIAVNKTPEQYIMDTLLRIRMSQLEDALMVMPFSYVLKFLKFIDTVMQNKTLLHSHLPLICKNLFFIIKFNHKELVSQKNEELKLQINRVKTELRSALKSTEDDLGFNVQGLKFVKQQWNLRHNYEFVDEYDQQEKESNSARKRVFGTVI		binds
Utp13 (protein, UniProt Q05946 1-817) MDLKTSYKGISLNPIYAGSSAVATVSENGKILATPVLDEINIIDLTPGSRKILHKISNEDEQEITALKLTPDGQYLTYVSQAQLLKIFHLKTGKVVRSMKISSPSYILDADSTSTLLAVGGTDGSIIVVDIENGYITHSFKGHGGTISSLKFYGQLNSKIWLLASGDTNGMVKVWDLVKRKCLHTLQEHTSAVRGLDIIEVPDNDEPSLNLLSGGRDDIINLWDFNMKKKCKLLKTLPVNQQVESCGFLKDGDGKRIIYTAGGDAIFQLIDSESGSVLKRTNKPIEELFIIGVLPILSNSQMFLVLSDQTLQLINVEEDLKNDEDTIQVTSSIAGNHGIIADMRYVGPELNKLALATNSPSLRIIPVPDLSGPEASLPLDVEIYEGHEDLLNSLDATEDGLWIATASKDNTAIVWRYNENSCKFDIYAKYIGHSAAVTAVGLPNIVSKGYPEFLLTASNDLTIKKWIIPKPTASMDVQIIKVSEYTRHAHEKDINALSVSPNDSIFATASYDKTCKIWNLENGELEATLANHKRGLWDVSFCQYDKLLATSSGDKTVKIWSLDTFSVMKTLEGHTNAVQRCSFINKQKQLISCGADGLIKIWDCSSGECLKTLDGHNNRLWALSTMNDGDMIVSADADGVFQFWKDCTEQEIEEEQEKAKLQVEQEQSLQNYMSKGDWTNAFLLAMTLDHPMRLFNVLKRALGESRSRQDTEEGKIEVIFNEELDQAISILNDEQLILLMKRCRDWNTNAKTHTIAQRTIRCILMHHNIAKLSEIPGMVKIVDAIIPYTQRHFTRVDNLVEQSYILDYALVEMDKLF		binds
Utp21 (protein, UniProt Q06078 1-939) MSIDLKKRKVEEDVRSRGKNSKIFSPFRIIGNVSNGVPFATGTLGSTFYIVTCVGKTFQIYDANTLHLLFVSEKETPSSIVALSAHFHYVYAAYENKVGIYKRGIEEHLLELETDANVEHLCIFGDYLCASTDDNSIFIYKKSDPQDKYPSEFYTKLTVTEIQGGEIVSLQHLATYLNKLTVVTKSNVLLFNVRTGKLVFTSNEFPDQITTAEPAPVLDIIALGTVTGEVIMFNMRKGKRIRTIKIPQSRISSLSFRTDGSSHLSVGTSSGDLIFYDLDRRSRIHVLKNIHRESYGGVTQATFLNGQPIIVTSGGDNSLKEYVFDPSLSQGSGDVVVQPPRYLRSRGGHSQPPSYIAFADSQSHFMLSASKDRSLWSFSLRKDAQSQEMSQRLHKKQDGGRVGGSTIKSKFPEIVALAIENARIGEWENIITAHKDEKFARTWDMRNKRVGRWTFDTTDDGFVKSVAMSQCGNFGFIGSSNGSITIYNMQSGILRKKYKLHKRAVTGISLDGMNRKMVSCGLDGIVGFYDFNKSTLLGKLKLDAPITAMVYHRSSDLFALALDDLSIVVIDAVTQRVVRQLWGHSNRITAFDFSPEGRWIVSASLDSTIRTWDLPTGGCIDGIIVDNVATNVKFSPNGDLLATTHVTGNGICIWTNRAQFKTVSTRTIDESEFARMALPSTSVRGNDSMLSGALESNGGEDLNDIDFNTYTSLEQIDKELLTLSIGPRSKMNTLLHLDVIRKRSKPKEAPKKSEKLPFFLQLSGEKVGDEASVREGIAHETPEEIHRRDQEAQKKLDAEEQMNKFKVTGRLGFESHFTKQLREGSQSKDYSSLLATLINFSPAAVDLEIRSLNSFEPFDEIVWFIDALTQGLKSNKNFELYETFMSLLFKAHGDVIHANNKNQDIASALQNWEDVHKKEDRLDDLVKFCMGVAAFVTTA		binds
